Test results published in US8703199B2, “Pharmaceutical compositions of adsorbates of amorphous drug” (Bend Research, Inc., priority 2001, dated 2014).
Counter-ions that a name gives are not always drawn. At least one compound was matched to its structure with a doubt left.

Assay: in vitro dissolution test, microcentrifuge method, Drug 5 in PBS (alone or with CAP)
Format: physicochemical

Question: Which AUC (0 min) does the source give for `CCCc1nn(C)c2c(=O)[nH]c(-c3cc(S(=O)(=O)N4CCN(C)CC4)ccc3OCC)nc12` [Control 5, sildenafil citrate] here?
Answer: Its AUC is 0 µg·min/mL.

Question: What about the “Drug 5 Concentration” value (0 min) of the same compound?
Answer: The value was 0 μgA/mL.

Question: What about the AUC (4 min) of the same compound?
Answer: Its AUC is 100 µg·min/mL.

Question: And the “Drug 5 Concentration” value (4 min)?
Answer: Its value is 42 μgA/mL.

Question: And the AUC (10 min)?
Answer: Its AUC is 300 µg·min/mL.

Question: What about the “Drug 5 Concentration” value (10 min) of the same compound?
Answer: The value was 40 μgA/mL.

Question: What about the AUC (20 min) of the same compound?
Answer: The AUC was 800 µg·min/mL.

Question: And the “Drug 5 Concentration” value (20 min)?
Answer: The value was 47 μgA/mL.

Question: What about the AUC (40 min) of the same compound?
Answer: The AUC was 1,700 min * μg/mL.

Question: And the “Drug 5 Concentration” value (40 min)?
Answer: Its value is 47 μgA/mL.

Question: What about the AUC (90 min) of the same compound?
Answer: Its AUC is 3,900 min * μg/mL.

Question: What about the “Drug 5 Concentration” value (90 min) of the same compound?
Answer: Its value is 42 μgA/mL.

Question: And the AUC (1200 min)?
Answer: The AUC was 44,400 min * μg/mL.

Question: What about the “Drug 5 Concentration” value (1200 min) of the same compound?
Answer: The value was 31 μgA/mL.

Question: What about the AUC90 (Drug 5) of the same compound?
Answer: The AUC90 was 3900 µg·min/mL.

Question: What about the C1200 (Drug 5) of the same compound?
Answer: The C1200 was 31 μgA/mL.
